This assay addresses GST-tagged p21 (UniProt P38936). The assay can be described thus: pull-down; only the target purified.

Chains of the proteins cited; added tags and fusions are not shown.
UniProt P38936: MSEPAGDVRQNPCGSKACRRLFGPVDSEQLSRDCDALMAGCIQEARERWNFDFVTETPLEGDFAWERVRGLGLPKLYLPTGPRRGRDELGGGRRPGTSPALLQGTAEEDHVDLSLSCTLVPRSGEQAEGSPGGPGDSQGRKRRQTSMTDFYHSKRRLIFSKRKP

These are yes or no findings as the source states them, for the method shown. Binding seen in cells or lysates may run through a third protein. Some entries that bind do so weakly or less than the wild type. Tags and fused reporters may be left off the sequences shown.

B1: HA-tagged HO-1 (protein, UniProt P09601 1-288)
chain: MERPQPDSMPQDLSEALKEATKEVHTQAENAEFMRNFQKGQVTRDGFKLVMASLYHIYVALEEEIERNKESPVFAPVYFPEELHRKAALEQDLAFWYGPRWQEVIPYTPAMQRYVKRLHEVGRTEPELLVAHAYTRYLGDLSGGQVLKKIAQKALDLPSSGEGLAFFTFPNIASATKFKQLYRSRMNSLEMTPAVRQRVIEEAKTAFLLNIQLFEELQELLTHDTKDQSPSRAPGLRQRASNKVQDSAPVETPRGKPPLNTRSQAPLLRWVLTLSFLVATVAVGLYAM
With B1, the binding entry is recorded as “binds”.

The values above are taken from paper PMC8920271.
